Among the data in paper PMC3224144 are binding values, retold here.

Chains of the proteins cited; added tags and fusions are not shown.
UniProt P03734: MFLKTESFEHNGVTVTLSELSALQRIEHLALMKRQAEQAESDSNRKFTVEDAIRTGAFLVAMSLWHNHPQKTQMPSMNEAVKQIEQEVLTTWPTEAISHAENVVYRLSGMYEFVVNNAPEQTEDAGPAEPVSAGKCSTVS
UniProt Q37935: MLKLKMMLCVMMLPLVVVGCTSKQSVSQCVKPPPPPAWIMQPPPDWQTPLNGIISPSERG
UniProt P03729: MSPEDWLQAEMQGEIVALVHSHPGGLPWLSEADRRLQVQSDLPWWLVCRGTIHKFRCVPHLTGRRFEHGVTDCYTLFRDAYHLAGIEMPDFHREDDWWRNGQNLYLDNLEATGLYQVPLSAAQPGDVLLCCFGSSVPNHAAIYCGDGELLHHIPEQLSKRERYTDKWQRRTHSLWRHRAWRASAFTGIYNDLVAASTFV
UniProt P03769: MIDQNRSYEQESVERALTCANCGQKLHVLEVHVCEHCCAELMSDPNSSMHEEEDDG

These are yes or no findings as the source states them, for the method shown. Some entries that bind do so weakly or less than the wild type.

Assay in all cases: two-hybrid; array-based yeast two-hybrid screens; each protein as bait (Gal4 DNA-binding domain) and as prey (Gal4 activation domain), N- and C-terminal fusions; bait-prey vector pairs pDEST32-pDEST22, pGBKT7g-pGADT7g, pGBKT7g-pGADCg, pGBKCg-pGADCg, pGBKCg-pGADT7g; ten configurations a pair; positives retested
In one experiment the target is T1, M (bacteriophage lambda) (UniProt P03737).
T1 sequence: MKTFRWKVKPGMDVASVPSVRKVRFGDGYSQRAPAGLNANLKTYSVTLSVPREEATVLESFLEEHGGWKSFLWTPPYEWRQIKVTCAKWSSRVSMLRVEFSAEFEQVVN

Experiment [1] addresses T2, NinD (bacteriophage lambda) (UniProt P03767).
T2 sequence: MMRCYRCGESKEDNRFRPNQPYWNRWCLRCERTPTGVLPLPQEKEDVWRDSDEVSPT

For another experiment, the target named is T3, U (bacteriophage lambda) (UniProt P03732).
T3 sequence: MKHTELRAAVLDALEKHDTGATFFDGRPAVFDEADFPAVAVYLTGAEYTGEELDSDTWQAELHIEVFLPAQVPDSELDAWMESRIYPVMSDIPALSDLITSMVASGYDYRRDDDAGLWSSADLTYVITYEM

For experiment [2], the target named is T4, DNA packaging protein A (bacteriophage lambda) (UniProt P03708).
T4 sequence: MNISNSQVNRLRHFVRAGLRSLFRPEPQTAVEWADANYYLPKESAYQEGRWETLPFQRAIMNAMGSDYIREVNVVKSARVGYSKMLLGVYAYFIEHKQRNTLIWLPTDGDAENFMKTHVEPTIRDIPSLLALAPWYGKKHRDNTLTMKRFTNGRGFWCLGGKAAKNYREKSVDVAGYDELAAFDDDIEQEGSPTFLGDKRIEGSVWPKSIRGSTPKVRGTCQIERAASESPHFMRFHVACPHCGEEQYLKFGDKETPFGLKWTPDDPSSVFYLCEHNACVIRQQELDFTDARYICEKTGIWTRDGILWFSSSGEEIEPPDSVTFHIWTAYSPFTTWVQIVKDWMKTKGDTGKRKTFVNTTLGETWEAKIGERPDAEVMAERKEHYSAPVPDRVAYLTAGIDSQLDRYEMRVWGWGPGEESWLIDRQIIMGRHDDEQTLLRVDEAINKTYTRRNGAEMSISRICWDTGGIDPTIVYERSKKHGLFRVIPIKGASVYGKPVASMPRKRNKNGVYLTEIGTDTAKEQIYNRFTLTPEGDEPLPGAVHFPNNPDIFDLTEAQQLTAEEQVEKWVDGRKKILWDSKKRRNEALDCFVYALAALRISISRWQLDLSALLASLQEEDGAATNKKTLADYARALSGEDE

Experiment [3] has as its target T5, antiterminator N (bacteriophage lambda) (UniProt P03045).
T5 sequence: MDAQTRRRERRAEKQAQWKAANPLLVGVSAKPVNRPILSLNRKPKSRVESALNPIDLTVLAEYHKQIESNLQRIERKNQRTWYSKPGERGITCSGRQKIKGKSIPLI

Experiment [4] concerns the target T6, Nu1 (bacteriophage lambda) (UniProt P03707).
T6 sequence: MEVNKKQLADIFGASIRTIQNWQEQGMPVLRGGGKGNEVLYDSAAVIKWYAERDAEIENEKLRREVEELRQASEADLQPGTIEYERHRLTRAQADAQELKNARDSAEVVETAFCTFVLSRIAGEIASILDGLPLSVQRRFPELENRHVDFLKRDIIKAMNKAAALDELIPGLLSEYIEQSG

For experiment [5], the target named is G, a tail protein (bacteriophage lambda) (UniProt P03734).
In experiment [6] the target is T7, Integrase (Int) (bacteriophage lambda) (UniProt P03700).
T7 sequence: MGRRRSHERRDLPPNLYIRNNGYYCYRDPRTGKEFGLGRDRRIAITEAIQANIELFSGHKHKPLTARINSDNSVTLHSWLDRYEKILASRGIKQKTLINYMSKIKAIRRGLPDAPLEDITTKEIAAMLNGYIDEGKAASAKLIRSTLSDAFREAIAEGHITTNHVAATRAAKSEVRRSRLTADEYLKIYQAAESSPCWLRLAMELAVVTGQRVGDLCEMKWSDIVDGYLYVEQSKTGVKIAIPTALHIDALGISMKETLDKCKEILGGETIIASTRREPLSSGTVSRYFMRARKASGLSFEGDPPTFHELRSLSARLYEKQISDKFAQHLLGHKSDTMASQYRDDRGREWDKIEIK

For experiment [7], the target named is T8, tape measure protein H (bacteriophage lambda) (UniProt P03736).
T8 sequence: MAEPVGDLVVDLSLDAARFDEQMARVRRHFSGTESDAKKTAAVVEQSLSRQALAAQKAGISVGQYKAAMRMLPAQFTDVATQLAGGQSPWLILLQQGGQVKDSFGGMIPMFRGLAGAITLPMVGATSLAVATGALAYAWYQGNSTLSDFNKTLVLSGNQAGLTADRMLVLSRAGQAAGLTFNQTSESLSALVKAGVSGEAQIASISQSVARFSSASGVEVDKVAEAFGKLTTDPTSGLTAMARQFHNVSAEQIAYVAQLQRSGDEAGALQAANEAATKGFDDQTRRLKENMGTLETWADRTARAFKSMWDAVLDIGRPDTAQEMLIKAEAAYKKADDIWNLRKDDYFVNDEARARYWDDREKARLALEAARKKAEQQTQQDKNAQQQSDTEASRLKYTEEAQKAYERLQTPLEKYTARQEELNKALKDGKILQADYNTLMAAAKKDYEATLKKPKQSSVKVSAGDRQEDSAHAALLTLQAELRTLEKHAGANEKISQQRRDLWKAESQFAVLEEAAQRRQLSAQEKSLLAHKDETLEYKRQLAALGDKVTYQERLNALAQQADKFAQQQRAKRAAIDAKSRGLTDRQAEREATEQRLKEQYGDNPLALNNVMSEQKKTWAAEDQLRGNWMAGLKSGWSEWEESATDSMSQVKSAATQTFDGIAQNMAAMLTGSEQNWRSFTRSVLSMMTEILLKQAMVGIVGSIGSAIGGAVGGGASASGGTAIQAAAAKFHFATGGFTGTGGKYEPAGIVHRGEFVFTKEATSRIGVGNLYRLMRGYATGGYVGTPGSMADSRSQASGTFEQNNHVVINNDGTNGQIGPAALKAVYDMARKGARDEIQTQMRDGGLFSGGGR

Consider Rz1 (from UniProt Q37935 1-60), for which, in the experiment with M (bacteriophage lambda), the binding entry is given as “binds”.

For K (from UniProt P03729 1-199), the binding entry in experiment [1] is listed as “binds”.

As for NinF (from UniProt P03769 1-56), the binding result (with U (bacteriophage lambda); with M (bacteriophage lambda); in [2]) was “binds” throughout.

B1: Cro (protein, UniProt P03040 1-66)
chain: MEQRITLKDYAMRFGQTKTAKDLGVYQSAINKAIHAGRKIFLTINADGSVYAEEVKPFPSNKKTTA
On to B1, for which the binding entry in [1] is “binds”.

B2: Nu1 (protein, UniProt P03707 1-181)
chain: T6 sequence
As for B2, the binding result in experiment [2], in experiment [3] and in experiment [4] was “binds” each time.

B3: tape measure protein H (protein, UniProt P03736 1-853)
chain: T8 sequence
For the molecule B3, in experiment [5], the binding result was “binds”.

B4: major tail protein V (protein, UniProt P03733 1-246)
chain: MPVPNPTMPVKGAGTTLWVYKGSGDPYANPLSDVDWSRLAKVKDLTPGELTAESYDDSYLDDEDADWTATGQGQKSAGDTSFTLAWMPGEQGQQALLAWFNEGDTRAYKIRFPNGTVDVFRGWVSSIGKAVTAKEVITRTVKVTNVGRPSMAEDRSTVTAATGMTVTPASTSVVKGQSTTLTVAFQPEGVTDKSFRAVSADKTKATVSVSGMTITVNGVAAGKVNIPVVSGNGEFAAVAEITVTAS
For B4, the binding entry in experiment [6], in experiment [7], in experiment [2], in experiment [3] and in [4] was “binds” throughout.
